# No constants are given. Whether binding was seen depends on the method and setting. In cells and extracts the contact can be indirect. For some assays here: Binding can be weak; no strength is given. Sequences can lack the tags named with a protein.
# Key:
# Myc-DCAF11 (N. crassa) = assay: co-IP; lysates of N. crassa strains co-expressing a Myc-tagged and a Flag-tagged protein; immunoprecipitation with c-Myc antibody (stated for Figures 6A, 8D, 8E; not stated for Figure 8A), western blot with c-Myc and Flag antibodies
# [1] = biological target: Myc-DCAF11R432A (N. crassa); assay: as above
binder,measurement,setting,value
"Flag-Cul4 (protein, UniProt Q7RZU1 1-1039) MPSNSTANPSELSRDNNNNNNNNNNNNNNNNNNNITTSHLHQHTPSSPPQATPTKRRFDDLNLKDKGAQQSHLHAAASSTTNTAAPNKRSRSELFAASSAVHPTTATTPPTMSAKLKGKRPASGPPEVIDLTQGSNNSAGSSPVATSSHSDIRGPPLSSSHSTGRTSTAPLNPKGGGMATGKTPGGTNYLQTHIGARRLVVKNLRPVATQTQTEEAHYARIRGDLDTALRAIFSGHGAGAGAGAGAAPALGGYSPSPGGPGGQSRSGAAGNNTTTGGQPMEKLYRGVEDICRRGKKESGELYEWLKDRCKGWLNSDEVLKSLLAAAPSIASDMGGEEDVILLRAVLAAWKRWIAQLLVIRWIFSYLDRSYLLPGGSGTSAEGKGKSASGKREGPTSVNDMGISAFRSAMYSSRSRNGANMLTIGARVVNAVCVLVMFDRLDDSRFDSQLLRESVAMLRLWGVYGKELEPKFINESREYVRRFAEERSESCGLKDYIVACERLLNKESERCDVYNFDSTTKRQLKDDAHDILIFNYAEKLLDSGSVAKLLDANDLDSIKALYELLKLSGIQKRLKGPWEQYIRKAGAAIVSDTARGDEMIIRILQLRRALDVMVRDAFGRDEDFTYGLRDAFGFFINDKSVSSSWNTGTSKVGEMIAKHIDMLLRGGLKTLPKALLSDVKDRQDAERSGIASTADEDAELDRQLDHSLELFRFIQGKDIFEAFYKKDLARRLLMGRSASRDAERNMLAKLKNECGSSFTHNLEIMFKDQELAKDEIASYKTWLAGRGEDSPVANSELDLSVNVLSAAAWPTYPDVRVLLPQNVLDHITTFDTYYKSKHTGRRLTWKHNLAHCVVKARFDRGPKELLVSAFQAIVLVLFNEAEEKSPDGILSYEQLASATGMPDPELQRTLQSLACGKTRVLNKHPKGRDVNKTDTFSINKSFTDPKFRVKINQIQLKETKEENKETHERVAQDRQFETQAAIVRIMKSRKKMAHAQLVAEVINQTKQRGAVDAADIKANIEKLIEKDYIEREGGNYVYLA",binding,Myc-DCAF11 (N. crassa),binds
same,binding,[1],no binding

# Reference: paper PMC2996332
